This passage reports binding results from PMC4867598.

The chains behind the UniProt entries cited, without tags or fusion partners. Residues count along the entry.
UniProt P00750, residues 36-562: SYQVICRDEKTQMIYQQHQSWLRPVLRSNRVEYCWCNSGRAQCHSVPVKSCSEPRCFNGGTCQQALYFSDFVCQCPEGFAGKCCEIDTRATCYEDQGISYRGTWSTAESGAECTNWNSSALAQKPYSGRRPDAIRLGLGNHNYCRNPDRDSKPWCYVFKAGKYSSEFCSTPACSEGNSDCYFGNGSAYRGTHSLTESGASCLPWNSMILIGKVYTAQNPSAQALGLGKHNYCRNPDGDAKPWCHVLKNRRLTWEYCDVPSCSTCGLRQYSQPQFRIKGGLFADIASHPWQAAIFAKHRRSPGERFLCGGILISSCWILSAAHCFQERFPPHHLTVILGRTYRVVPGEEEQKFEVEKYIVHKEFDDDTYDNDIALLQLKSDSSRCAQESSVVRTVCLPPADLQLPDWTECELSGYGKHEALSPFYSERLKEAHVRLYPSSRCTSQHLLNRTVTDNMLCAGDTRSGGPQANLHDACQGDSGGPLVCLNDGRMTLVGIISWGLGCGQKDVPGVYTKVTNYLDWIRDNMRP
UniProt Q01097, residues 27-1482: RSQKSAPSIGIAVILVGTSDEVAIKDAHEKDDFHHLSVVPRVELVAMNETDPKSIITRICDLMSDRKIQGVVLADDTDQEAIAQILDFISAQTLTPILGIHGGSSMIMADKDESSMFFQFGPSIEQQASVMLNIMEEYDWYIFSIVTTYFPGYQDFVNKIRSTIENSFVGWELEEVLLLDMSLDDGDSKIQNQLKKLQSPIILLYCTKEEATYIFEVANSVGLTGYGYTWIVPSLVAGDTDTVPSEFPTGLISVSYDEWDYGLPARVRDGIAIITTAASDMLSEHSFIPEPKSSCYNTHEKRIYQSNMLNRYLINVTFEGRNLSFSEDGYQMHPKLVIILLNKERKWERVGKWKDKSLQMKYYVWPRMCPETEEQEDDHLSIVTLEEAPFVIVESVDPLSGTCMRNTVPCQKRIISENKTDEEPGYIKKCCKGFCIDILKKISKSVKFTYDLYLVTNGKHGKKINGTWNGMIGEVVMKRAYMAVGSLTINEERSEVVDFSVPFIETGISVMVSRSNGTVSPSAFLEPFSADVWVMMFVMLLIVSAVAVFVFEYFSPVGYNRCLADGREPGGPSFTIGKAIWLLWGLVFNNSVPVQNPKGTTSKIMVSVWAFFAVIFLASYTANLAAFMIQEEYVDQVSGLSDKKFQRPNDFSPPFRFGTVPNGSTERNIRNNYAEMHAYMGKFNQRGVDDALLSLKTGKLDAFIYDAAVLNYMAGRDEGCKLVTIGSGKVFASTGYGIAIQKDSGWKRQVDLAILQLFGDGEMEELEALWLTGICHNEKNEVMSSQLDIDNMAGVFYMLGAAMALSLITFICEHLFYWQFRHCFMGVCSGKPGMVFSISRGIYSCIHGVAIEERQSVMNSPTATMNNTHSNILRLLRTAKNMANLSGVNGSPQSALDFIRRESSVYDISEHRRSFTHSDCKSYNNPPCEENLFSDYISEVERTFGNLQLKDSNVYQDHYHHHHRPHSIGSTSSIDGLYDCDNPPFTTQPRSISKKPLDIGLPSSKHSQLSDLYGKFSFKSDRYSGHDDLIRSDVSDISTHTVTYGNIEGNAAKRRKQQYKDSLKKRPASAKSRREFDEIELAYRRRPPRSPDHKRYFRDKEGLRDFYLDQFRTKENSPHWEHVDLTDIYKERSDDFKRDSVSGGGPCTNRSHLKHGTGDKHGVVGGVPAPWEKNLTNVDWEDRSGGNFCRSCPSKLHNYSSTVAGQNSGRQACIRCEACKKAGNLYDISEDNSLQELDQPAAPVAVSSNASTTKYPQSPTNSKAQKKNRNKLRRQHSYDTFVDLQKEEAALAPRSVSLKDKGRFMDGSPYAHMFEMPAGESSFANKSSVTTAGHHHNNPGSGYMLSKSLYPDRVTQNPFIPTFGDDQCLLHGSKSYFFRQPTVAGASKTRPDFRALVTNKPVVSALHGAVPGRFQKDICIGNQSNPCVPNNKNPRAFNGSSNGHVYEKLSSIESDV

Results are given in words; binding and its absence hold for the method and conditions named. Binding seen in cells or lysates may run through a third protein. Some binding calls cover weakened binding; strength is not graded here.

This experiment has as its target tissue plasminogen activator (exogenous; Actilyse) (UniProt P00750). In words: co-IP; extracts of ischemic brain hemispheres of mice 24 hours after MCA occlusion, RIPA lysis buffer; 500 ug lysate with anti-NR2B or anti-tPA antibody or normal IgG overnight at 4 °C, Protein A agarose, Western blot; mice treated with vehicle, tPA, rADAMTS 13 + tPA, or rADAMTS 13. Background: In western blotting, separated proteins are transferred to a membrane and probed.

On to “NMDA receptor subunit NR2B (from UniProt Q01097 27-1482)”, for which the binding entry is given as “binds”.
